Taken from: PubChem BioAssay AID1259308 (NCATS, 2017)
Test: 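Candidate targets for better recombinant protein yield in mammalian cells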 (primary screen). Cell system: human HEK293 embryonic kidney cells stably expressing firefly luciferase (HEK-CMV-Luc2-Hygro). Reagent: single siRNA against human genes, 0.8 pmol siRNA per well. Duration: 72 h. Measurement: 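Reporter luminescence and viable-cell signal on separate replicate plates, given as percent of non-targeting control and median/MAD z-scores, plus per-cell luciferase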. Reading the numbers: total luciferase, z-score and total luciferase, % of control: higher = more reporter protein produced. Hit rule: 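Active when the median/MAD z-score for overall luciferase is greater than 3; a gene was taken forward for validation with new siRNAs if at least two of its three siRNAs passed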. Meaning of the calls: active = raised luciferase; inactive = no rise.
The whole screen tested about 59,000 reagents; this is an unselected part. About 1,510 of all reagents (2.6%) count as active. 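Calls use total luciferase alone and ignore viability, so some active siRNAs may act by altering cell number.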 Entries without a mark were called inactive. Reagents against one gene are numbered here. Not all columns of the deposit are shown. Reagent sequences are not shown.

PRM1 #1 showed total luciferase, z-score -0.063; total luciferase, % of control 80.6.
Against PRM1 #2 the deposit lists total luciferase, z-score 0.047; total luciferase, % of control 82.8.
PRM1 #3 scored total luciferase, z-score -1.01; total luciferase, % of control 61.9.
After knock-down of STAT5A #1, the record shows total luciferase, z-score -1.04; total luciferase, % of control 61.1.
After knock-down of STAT5A #2, the screen gave total luciferase, z-score -1.93; total luciferase, % of control 43.6.
Depletion of STAT5A #3 gave: total luciferase, z-score 1.25; total luciferase, % of control 107.
PRSS47P #1 showed total luciferase, z-score 1.13; total luciferase, % of control 104.
PRSS47P #2 scored total luciferase, z-score 2.31; total luciferase, % of control 128.
PRSS47P #3 showed total luciferase, z-score 1.62; total luciferase, % of control 114.
EMD #1 scored total luciferase, z-score 1.02; total luciferase, % of control 102.
Against EMD #2 the deposit lists total luciferase, z-score 1.26; total luciferase, % of control 107.
Knock-down of EMD #3 came out at: total luciferase, z-score -0.492; total luciferase, % of control 72.1.
Against NR4A3 #1 the deposit lists total luciferase, z-score 2.04; total luciferase, % of control 122.
For NR4A3 #2, the values are total luciferase, z-score 1.24; total luciferase, % of control 107.
With knock-down of NR4A3 #3, the record shows total luciferase, z-score -0.248; total luciferase, % of control 76.9.
Knock-down of IKBKE #1 came out at: total luciferase, z-score 1.89; total luciferase, % of control 120.
With knock-down of IKBKE #2, the screen gave total luciferase, z-score -0.421; total luciferase, % of control 73.5.
Against IKBKE #3 the deposit lists total luciferase, z-score -1.68; total luciferase, % of control 48.6.
Depletion of EIF2B1 #1 resulted in: total luciferase, z-score -0.0594; total luciferase, % of control 80.7.
Knock-down of EIF2B1 #2 came out at: total luciferase, z-score -0.833; total luciferase, % of control 65.3.
Knock-down of EIF2B1 #3 resulted in: total luciferase, z-score 0.223; total luciferase, % of control 86.3.
With knock-down of ASXL2 #1, the record shows total luciferase, z-score 0.74; total luciferase, % of control 96.6.
After knock-down of ASXL2 #2, the screen gave total luciferase, z-score 1.03; total luciferase, % of control 102.
Silencing of ASXL2 #3 came out at: total luciferase, z-score -0.207; total luciferase, % of control 77.8.
CLDN25 #1 gave total luciferase, z-score -1.84; total luciferase, % of control 45.3.
Knock-down of CLDN25 #2 resulted in: total luciferase, z-score -0.716; total luciferase, % of control 67.7.
For CLDN25 #3, the values are total luciferase, z-score -0.144; total luciferase, % of control 79.
For ABCA17P #1, the values are total luciferase, z-score 0.148; total luciferase, % of control 84.8.
ABCA17P #2 showed total luciferase, z-score -0.291; total luciferase, % of control 76.1.
With knock-down of ABCA17P #3, the record shows total luciferase, z-score 0.766; total luciferase, % of control 97.1.
For CCDC140 #1, the entry reads total luciferase, z-score -0.0811; total luciferase, % of control 80.3.
With knock-down of CCDC140 #2 the results were total luciferase, z-score 1.78; total luciferase, % of control 117.
Against CCDC140 #3, the entry reads total luciferase, z-score -0.14; total luciferase, % of control 79.1.
